Measured values as given in patent publication US9357924B2, “Composition, method, system and kit for optical electrophysiology” (The Research Foundation of State University of New York, priority 2006, dated 2016).
“And” between values parts separate entries of the source, which are not always exact repeats. Identical values can stand only once.

Experiments:
rat heart cardiac tissue = test: Optical action potential recording in Langendorff-perfused rat heart (Tyrode's solution); details: processed signals, mean ± SD
Description: (§1) The dye testing experiments were performed on typical model animals: mice (n=6), rat (n=11), guinea pig (n=6), pig (n=13). All experimental protocols conformed to the Guide for the Care and Use of Laboratory Animals and were approved by the Committee for the Humane Use of Animal of the SUNY Upstate Medical University. Mice (C57BL/6, 20-25 g) were injected with ketamine (200 mg/kg IP), rats (Sprague Dawley, 300-400 g female) and guinea pigs were injected with heparin (550 U/100 g), and euthanized by sodium phentobarbital (1 ml/100 g for rats and 0.75 ml/100 g for guinea pigs). The heart was then immediately excised and placed in ice-cold cardioplegia solution (CPS) composed of (in mmol/l) 280 Glucose, 13.44 KCl, 12.6 NaHCO3, 34 Mannitol. […] Perfusion and superfusion temperatures were continuously monitored and kept at 36±1° C. by using two sets of glass heating coils and heated-refrigerated circulators. […]
(§2) After a 20-30 min stabilization period during which the perfusion flow and ECG was monitored, the excitation-contraction uncoupler diacetyl-monoxime (DAM) was added to the perfusate (15 mmol/l) to stop contractions of cardiac tissue. […]

[1] = tested on: mouse heart cardiac tissue; test: Optical action potential recording in Langendorff-perfused mouse heart (Tyrode's solution); details: processed signals, mean ± SD
Description: as §1, §2

[2] = tested on: guinea pig heart cardiac tissue; test: Optical action potential recording in Langendorff-perfused guinea pig heart (Tyrode's solution); details: processed signals, mean ± SD
Description: as §1, §2

[3] = tested on: pig cardiac tissue (right free ventricular wall); test: Optical action potential recording in Tyrode-perfused pig right ventricular wall preparation
Description: as §1, §2

**Q.** For `CCCCN(CCCC)c1ccc2cc(/C=C/C=C/c3cc[n+](CCC[N+](C)(C)C)c4ccccc34)ccc2c1.[Br-].[Br-]` [JPW6003, Di-4-ANBDQPQ], which “S/N (maximal OP signal to noise ratio)” value (rat heart cardiac tissue) is on record?
**A.** Its value is 670 ± 70 and 760 ± 80.

**Q.** What about the “S/N (maximal OP signal to noise ratio)” value [1] of the same compound?
**A.** The value was 490 ± 50 and 530 ± 55.

**Q.** And the “S/N (maximal OP signal to noise ratio)” value [2]?
**A.** Its value is 715 ± 80 and 960 ± 95.

**Q.** What about the “S/N (maximal OP signal to noise ratio)” value ([3]; pig tissue, Tyrode-perfused, epifluorescence) of the same compound?
**A.** Its value is 1000 ± 100 and 850 ± 90.

**Q.** And the “S/N (maximal OP signal to noise ratio)” value ([3]; pig, transillumination mode)?
**A.** Its value is 24 ± 2.2.
